These are yes or no findings as the source states them, for the method shown. Binding seen in cells or lysates may run through a third protein. Binding can be weak; no strength is given.
Molecular target: T1, Glycerol-3-phosphate acyltransferase 3 (human (endogenous in HCT-116)) (UniProt Q53EU6)
T1 sequence: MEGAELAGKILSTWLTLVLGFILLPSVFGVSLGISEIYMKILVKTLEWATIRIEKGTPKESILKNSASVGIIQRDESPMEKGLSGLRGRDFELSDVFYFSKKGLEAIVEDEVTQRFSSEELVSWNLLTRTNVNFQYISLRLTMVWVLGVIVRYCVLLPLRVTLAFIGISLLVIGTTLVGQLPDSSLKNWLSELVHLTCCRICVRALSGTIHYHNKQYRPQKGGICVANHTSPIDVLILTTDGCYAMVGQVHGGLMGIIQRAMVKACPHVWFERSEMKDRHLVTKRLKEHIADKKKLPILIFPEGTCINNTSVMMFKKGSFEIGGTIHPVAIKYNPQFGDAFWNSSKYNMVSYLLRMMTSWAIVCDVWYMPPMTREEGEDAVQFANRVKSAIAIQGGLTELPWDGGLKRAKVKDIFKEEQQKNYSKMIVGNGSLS
Assay: co-IP; endogenous proteins; cells lysed with NP-40 lysis buffer; Protein A&G magnetic beads; anti-rabbit and mouse IgG as negative controls; immunoblot

binding: binds
Substance: SIRT3 (human (endogenous in HCT-116)) (enzyme)
